Paper PMC9216541 (PLoS ONE, 2022)
Where no end group is shown, it is not given here. The star is where a group is joined. FITC = O=C1OC2(c3ccc(O)cc3Oc3cc(O)ccc32)c2ccc(NC(=S)*)cc21; GABA = NCCCC(=O)O

How the values were obtained:
[1] = general procedure: Fmoc solid-phase peptide synthesis; Rink amide or MBHA Rink amide resin; Rink Amide MBHA LL resin (0.38 mmol/g); PyClocK, DIPEA in DMF; settings: whole synthesis
peptide synthesis = settings: whole synthesis

Ac-IRRRGKNKR5AAS5NCRKRK
isolated yield [1]: 6%

Ac-IRRRGKNKVAAQNCRKRK
isolated yield [1]: 8%

Ac-IRRRR8KNKVAAS5NCRKRK
isolated yield [1]: 9%

Ac-KNAIQARKCGRKVRRNKR
isolated yield [1]: 6%

Ac-RRRS5KNKS5AAQNCRKRK
isolated yield [1]: 9%

Ac-S5RRRS5KNKVAAQNCRKRK
isolated yield [1]: 7%

FITC-GABA-IRRRGKNKR5AAS5NCRKRK
isolated yield (peptide synthesis): 3%

FITC-GABA-IRRRR8KNKVAAS5NCRKRK
isolated yield (peptide synthesis): 8%

FITC-GABA-RRRS5KNKS5AAQNCRKRK
isolated yield (peptide synthesis): 7%

FITC-GABA-S5RRRS5KNKVAAQNCRKRK
isolated yield (peptide synthesis): 5%

{FITC-GABA}-IRRRGKNKVAAQNCRKRK
isolated yield (peptide synthesis): 5%

{FITC-GABA}-KNAIQARKCGRKVRRNKR
isolated yield (peptide synthesis): 8%
